{"source": "paper PMC10163288", "binders": {"B1": {"name": "il10ra_site1_sap_10_mot_HHH_b1_06341_af2_000000167_0001_17_35_H_._HHH_b2_03230_0001_0000100007_0000001_0_0001_af2pred_0001 (protein)", "chain": "SSSSDEEHEEFEELYEEAEELLKEGDPHKVLELIRRLLELALELNDPELQRRVLELLQRLASSSS"}, "B2": {"name": "il10ra_site1_normal_mot_HHH_b1_02997_000000220_0001_39_52_H_._HHH_b2_07433_af2_0001_0000200010_0000001_0 (protein)", "chain": "SSSSSSEENERVYKLIRKALHIDDEEERRELLQEAVELAEEGGNENLLFNARYALKDVEESSSSS"}, "B3": {"name": "il10ra_site1_sap_22_mot_HHH_b1_06788_af2_000000238_0001_19_36_H_._HHH_b2_06645_0001_0000300026_0000001_0_0001_af2pred_0001 (protein)", "chain": "SSSSSDTEEEAEELYEQAREAFEKGDEEKARKLFHELVRLAREYNDRLAARLLSQLLELGSSSSS"}, "B4": {"name": "il10ra_site1_normal_mot_HHH_b2_00134_af2_000000008_0001_38_52_H_._4d38eb9c16805ff794392fe48eb80f74_0001_0001_0000200010_0000001_0 (protein)", "chain": "SLEELLEELLRELGVPPERIELLKLAFRRQRKQGSPPENVLEALLHLLEATGDPAREAVEELLER"}, "B5": {"name": "il10ra_site1_sap_25_mot_HHH_b1_05357_000000034_0001_23_39_H_._HHH_b2_00731_0001_0000300016_0000001_0_0001 (protein)", "chain": "SSSSDEYVRMTLKFAEWLAEEGDRDAVKHFLRVAKELAEDAGDEELEELIKEVEEEVQKLLSSSS"}, "B6": {"name": "il10ra_site1_normal_mot_HHH_b1_00999_000000080_0001_41_55_H_._HHH_b2_06260_0001_0000100005_0000001_0 (protein)", "chain": "SSSSSEDEERVEELLEEAEEAAKRDPEEAARLLQEATQIALRNQNQELLQLVWRVVKELGDSSSS"}, "B7": {"name": "il10ra_site1_sap_31_mot_HHH_b1_05789_000000283_0001_1_15_H_._HHH_b2_07683_0001_0000400018_0000001_0_0001 (protein)", "chain": "SSSSSDEHQRLYELLREAIEARADGNPEEAQEILEEVIELAEELNNWSVLINARYLLERISSSSS"}, "B8": {"name": "il10ra_site1_sap_22_mot_HHH_b1_05587_000000266_0001_24_40_H_._HHH_b1_01541_0001_0000300024_0000001_0_0001 (protein)", "chain": "SSDPEELVEEAKELIEQAHELGIFSEQQSRALKHFLEAALEQGNEEIIRALLEALKLIIESHESS"}, "B9": {"name": "il10ra_site1_sap_27_mot_HHH_b1_04514_000000156_0001_1_18_H_._HHH_b2_02171_af2_0001_0000500039_0000002_1_0001 (protein)", "chain": "SSSSDEEELEELLEELERLIEEGDRERAFELIHRILELAYRLNDPEALRRLWELVKRLAKSSSSS"}, "B10": {"name": "il10ra_site1_sap_25_mot_cff26900b2948c323735a169404cbef0_0001_1_000000271_0001_18_33_H_._d4eec69c0b90ce06bf3cc15fde6963ba_0001_1_0001_0000100001_0000001_0_0001 (protein)", "chain": "SSSSDEEAREVYELSRRAAELDSEGDEEEAEEVLREAEELAREANNWAVLAAVEHLARITSSSSS"}}, "note": "Some of the results follow."}
{"target": "il10ra, Q13651", "assay": "yeast display titration"}
{"binder": "B1", "apparent Kd": "inactive: no binding seen"}
{"binder": "B2", "apparent Kd": "inactive: no binding seen"}
{"binder": "B3", "apparent Kd": "inactive: no binding seen"}
{"binder": "B4", "apparent Kd": "inactive: no binding seen"}
{"binder": "B5", "apparent Kd": "inactive: no binding seen"}
{"binder": "B6", "apparent Kd": "inactive: no binding seen"}
{"binder": "B7", "apparent Kd": "inactive: no binding seen"}
{"binder": "B8", "apparent Kd": "inactive: no binding seen"}
{"binder": "B9", "apparent Kd": "inactive: no binding seen"}
{"binder": "B10", "apparent Kd": "inactive: no binding seen"}
